# Test results: the supplement of paper PMC10689618
# Counter-ions that a name gives are not always drawn. Some of the results follow. Repeats are few or missing, and single values can be far off.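 Labelled rat cortical synaptosomes were engulfed by primary human fetal astrocytes. Engulfment equaled a red/green ratio, corrected for calcein live-cell signal and normalized to the plate median. Compounds were toxic when calcein dropped over 30%, and reduced phagocytosis when below 70% of the median above 5 µM.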
# Legend:
# Human fetal astrocytes [1] = assay: loss of total cells relative to no-compound high-control median (toxicity); higher = more toxic (fewer cells); conditions: 24 h
# Human fetal astrocytes [2] = assay: synaptosome phagocytosis (pHrodo/calcein intensity ratio) relative to plate median of data wells; higher = more phagocytosis; conditions: 24 h
Compound,loss of total cells (Human fetal astrocytes [1]; 1.39 µM),loss of total cells (Human fetal astrocytes [1]; 2.78 µM),loss of total cells (Human fetal astrocytes [1]; 5.56 µM),loss of total cells (Human fetal astrocytes [1]; 11.11 µM),loss of total cells (Human fetal astrocytes [1]; 22.22 µM),synaptosome phagocytosis (Human fetal astrocytes [2]; 1.39 µM),synaptosome phagocytosis (Human fetal astrocytes [2]; 2.78 µM),synaptosome phagocytosis (Human fetal astrocytes [2]; 5.56 µM),synaptosome phagocytosis (Human fetal astrocytes [2]; 11.11 µM),synaptosome phagocytosis (Human fetal astrocytes [2]; 22.22 µM)
C=CC1(C)CC(=O)C2(O)C(C)(O1)C(O)C(O)C1C(C)(C)CCC(O)C12C (stereo not given),-10.7%,10.5%,-11%,-2%,12.6%,128%,127%,82.2%,101%,96.9%
C/C=N/N(C)C=O,7.6%,13.4%,21.7%,12.1%,15.2%,97.8%,119%,124%,108%,110%
CC(=O)Oc1ccc2c(c1OC(C)=O)OCC1(O)Cc3c(cc(OC(C)=O)c(OC(C)=O)c3OC(C)=O)C21 (stereo not given),12%,14%,6.1%,60.6%,42.6%,124%,88.9%,85.7%,126%,110%
O=C(O)[C@H](O)[C@@](O)(Cc1ccc(O)cc1)C(=O)O,27.9%,9.3%,-29%,25.2%,34.4%,151%,112%,86.6%,91.1%,143%
CCC(=O)OCC(=O)[C@@]1(OC(=O)CC)[C@@H](C)C[C@H]2[C@@H]3CCC4=CC(=O)C=C[C@]4(C)[C@@]3(Cl)[C@@H](O)C[C@@]21C,-12.4%,-17.4%,5.1%,-14.8%,9.6%,106%,81.1%,112%,106%,77.6%
CC(=O)Oc1cccc(O)c1,-28.2%,-27%,-7.5%,-14.1%,4.7%,76.1%,83.1%,68%,72.2%,109%
Nc1ccc(S(=O)(=O)Nc2nccs2)cc1,-16.9%,-8.5%,2.8%,0.3%,21%,98.7%,97.1%,88.6%,111%,120%
NC(N)=O,-8.6%,-5.1%,-13.2%,-9.5%,28.9%,100%,79.6%,84.7%,124%,101%
Cc1cn([C@H]2C[C@H](N=[N+]=[N-])[C@@H](CO)O2)c(=O)[nH]c1=O [AZT Zidovudine Azidothymidine 3'-Azido-3'-deoxythymidine],-0.8%,-22.2%,0%,44.3%,-5.9%,129%,103%,130%,169%,124%
C=CC1=C(C(=O)O)N2C(=O)[C@@H](NC(=O)/C(=N\O)c3csc(N)n3)[C@H]2SC1,-30.6%,-14.3%,18%,44.9%,9.7%,78%,135%,82.5%,147%,114%
Nc1ccc(S(=O)(=O)Nc2ncccn2)cc1,-2.1%,-28.8%,-12.5%,-10.1%,21.6%,94.5%,130%,94.4%,108%,104%
"COc1cc(O)c2c(=O)cc(-c3ccc(OC)c(-c4c(O)cc(O)c5c(=O)cc(-c6ccc(O)cc6)oc45)c3)oc2c1 [GINKGETIN, K salt]",-6.2%,-8.6%,30.5%,45.8%,3.3%,114%,107%,96.8%,155%,127%
N=C(N)N1CCc2ccccc2C1,-27.4%,-11.3%,-8.1%,-24.2%,-18.1%,74.4%,90.9%,92.6%,90.7%,93%
CN(C)CCOC(c1ccccc1)c1ccccc1.Cn1c(=O)c2[nH]c(Cl)nc2n(C)c1=O,15.1%,-28.1%,-5.6%,11.2%,-36.2%,132%,134%,92.7%,109%,82.9%
N=C(N)NC(=O)c1nc(Cl)c(N2CCCCCC2)nc1N,-12.3%,0.4%,2.9%,20.9%,20%,108%,86.7%,99.7%,59.5%,98.2%
CC(=O)Nc1c(I)cc(I)c(C(=O)O)c1I,-47.6%,29.4%,1.2%,46.9%,12.8%,25.2%,109%,88.2%,148%,81%
COC(=O)C[C@H]1C(C)(C)C(=O)[C@@H]2CC3=C4CC(=O)O[C@@H](c5ccoc5)[C@]4(C)CC[C@@H]3[C@@]1(C)C2=O,-22.1%,1.3%,22.1%,8.4%,-9.3%,102%,84.4%,136%,113%,95.2%
Cc1c(C)c2c(c(C)c1O)CCC(C)(C(=O)O)O2 (stereo not given),17.7%,25.6%,16.7%,10.5%,16.7%,144%,130%,91.2%,97%,134%
COc1ccc2c(=O)c(-c3ccc(O)cc3)coc2c1,-41%,16.2%,15.4%,-3.4%,8.9%,48.6%,128%,91.7%,82.5%,142%
CO/N=C(\C(=O)N[C@@H]1C(=O)N2C(C(=O)O)=C(COC(N)=O)CS[C@H]12)c1ccco1,18.3%,-11.9%,5.7%,2.3%,18.1%,78.7%,121%,123%,116%,109%

# No new results follow: two of the compounds above.
Compound,loss of total cells (Human fetal astrocytes [1]; 1.39 µM),loss of total cells (Human fetal astrocytes [1]; 2.78 µM),loss of total cells (Human fetal astrocytes [1]; 5.56 µM),loss of total cells (Human fetal astrocytes [1]; 11.11 µM),loss of total cells (Human fetal astrocytes [1]; 22.22 µM),synaptosome phagocytosis (Human fetal astrocytes [2]; 1.39 µM),synaptosome phagocytosis (Human fetal astrocytes [2]; 2.78 µM),synaptosome phagocytosis (Human fetal astrocytes [2]; 5.56 µM),synaptosome phagocytosis (Human fetal astrocytes [2]; 11.11 µM),synaptosome phagocytosis (Human fetal astrocytes [2]; 22.22 µM)
Cc1c(C)c2c(c(C)c1O)CCC(C)(C(=O)O)O2 (stereo not given),17.7%,25.6%,16.7%,10.5%,16.7%,144%,130%,91.2%,97%,134%
COc1ccc2c(=O)c(-c3ccc(O)cc3)coc2c1,-41%,16.2%,15.4%,-3.4%,8.9%,48.6%,128%,91.7%,82.5%,142%
